PubChem BioAssay AID1259424, University of Nebraska Medical Center | 2018

Screen: 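Find knockdowns that reproduce the expression shifts seen after KSR1 loss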 (primary screen)
System: human HCT116 colon cancer cells
Reagent: siRNA pool against human genes, 50 nM
Detection: 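Log2 levels of six mRNAs (branched-DNA multiplex), adjusted by two reference genes and the non-targeting median, then scored against the average KSR1 knockdown pattern as Pearson r and euclidean distance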
Reading the numbers: mean correlation with KSR1 profile and KSR1 correlation: higher = expression change more like KSR1 knockdown; mean distance from KSR1 profile: higher = expression change less like KSR1 knockdown
In all, the deposit lists about 14,000 reagents; this is an unselected part. 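Higher correlation or smaller distance means closer resemblance to KSR1 loss; control wells, including KSR1 knockdowns, recur on many plates.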 Not given: the time to read-out.

The first 3 records as a preview:
mean correlation with KSR1 profile	mean distance from KSR1 profile	KSR1 correlation, replicate 1	KSR1 correlation, replicate 2	KSR1 correlation, replicate 3	target
0.584	0.952	0.702	0.657	0.155	ZNF10 (zinc finger protein 10)
-0.544	2.17	-0.33	-0.66	-0.398	SLC7A9
0.764	2.05	0.706	0.778	0.664	MPV17L2 (MPV17 mitochondrial inner membrane protein like 2)

Main list, from the first entry:
mean correlation with KSR1 profile	mean distance from KSR1 profile	KSR1 correlation, replicate 1	KSR1 correlation, replicate 2	KSR1 correlation, replicate 3	target
0.584	0.952	0.702	0.657	0.155	ZNF10 (zinc finger protein 10)
-0.544	2.17	-0.33	-0.66	-0.398	SLC7A9
0.764	2.05	0.706	0.778	0.664	MPV17L2 (MPV17 mitochondrial inner membrane protein like 2)
-0.42	1.36	-0.237	-0.394	-0.403	CHD1L (chromodomain helicase DNA binding protein 1 like)
0.502	1.1	0.572	0.385	0.489	CSF1 (colony stimulating factor 1)
-0.0622	1.3	0.237	-0.0909	-0.665	HNF4G (hepatocyte nuclear factor 4 gamma)
-0.107	1.78	0.000951	-0.33	-0.121	LNX1 (ligand of numb-protein X 1)
-0.702	1.5	-0.651	-0.563	-0.482	PRLR (prolactin receptor)
0.269	1.7	0.477	-0.0209	0.186	GRIK1 (glutamate ionotropic receptor kainate type subunit 1)
0.418	2.29	0.358	0.576	0.433	BTNL8 (butyrophilin like 8)
-0.269	3.34	-0.24	-0.387	-0.245	KCNC2 (potassium voltage-gated channel subfamily C member 2)
-0.326	4.14	-0.378	-0.264	-0.448	SLC29A2
0.038	2.72	0.0995	-0.0657	-0.00712	GLRX2 (glutaredoxin 2)
0.798	0.765	0.749	0.654	0.741	NEURL1 (neuralized E3 ubiquitin protein ligase 1)
-0.124	2.33	0.0404	-0.346	-0.213	DCLRE1B (DNA cross-link repair 1B)
0.0283	2.83	0.0151	0.286	-0.177	VTCN1 (V-set domain containing T cell activation inhibitor 1)
-0.638	2.24	-0.477	-0.808	-0.398	PSIP1 (PC4 and SRSF1 interacting protein 1)
-0.495	2.09	-0.544	-0.529	-0.311	RNF24 (ring finger protein 24)
0.0218	1.18	0.13	0.0112	-0.19	L3MBTL1 (L3MBTL histone methyl-lysine binding protein 1)
-0.0852	4.54	-0.0493	-0.177	-0.0533	HIRIP3 (HIRA interacting protein 3)
-0.344	2.76	-0.258	-0.408	-0.414	GABRB3 (gamma-aminobutyric acid type A receptor subunit beta3)
0.125	2.23	0.0285	-0.108	0.331	SLC25A33
-0.737	1.76	-0.475	-0.755	-0.621	PITPNC1 (phosphatidylinositol transfer protein cytoplasmic 1)
-0.337	3.13	-0.297	-0.375	-0.433	PLOD1 (procollagen-lysine,2-oxoglutarate 5-dioxygenase 1)
0.722	1.19	0.776	0.67	0.703	ITGA10 (integrin subunit alpha 10)
0.498	2.62	0.569	0.467	0.487	GSPT2 (G1 to S phase transition 2)
-0.263	1.44	0.0633	-0.191	-0.312	HNRNPM (heterogeneous nuclear ribonucleoprotein M)
-0.214	1.29	-0.174	-0.0677	-0.0923	TPSG1 (tryptase gamma 1)
0.82	1.59	0.866	0.78	0.824	ADRA1D (adrenoceptor alpha 1D)
-0.537	2.76	-0.208	-0.573	-0.774	RETSAT (retinol saturase)
0.446	3.17	0.222	0.292	0.389	A4GALT (alpha 1,4-galactosyltransferase (P1PK blood group))
-0.0887	2.24	-0.168	-0.00799	-0.192	AXL (AXL receptor tyrosine kinase)
-0.596	1.78	-0.503	-0.538	-0.586	MARF1 (meiosis regulator and mRNA stability factor 1)
-0.283	2.11	-0.434	-0.0566	-0.138	SUCO (SUN domain containing ossification factor)
-0.653	2.69	-0.579	-0.552	-0.512	TBC1D29P (TBC1 domain family member 29, pseudogene)
0.363	4.08	0.433	0.269	0.153	BCOR (BCL6 corepressor)
-0.469	3.36	-0.358	-0.404	-0.254	PIAS3 (protein inhibitor of activated STAT 3)
-0.0235	1.65	-0.168	-0.458	-0.331	SND1 (staphylococcal nuclease and tudor domain containing 1)
0.879	2.42	0.8	0.74	0.828	PAX1 (paired box 1)
-0.195	1.37	-0.089	-0.369	-0.272	COX5B (cytochrome c oxidase subunit 5B)
-0.0874	1.66	-0.773	-0.6	0.18	QTRT1 (queuine tRNA-ribosyltransferase catalytic subunit 1)
-0.612	4.53	-0.611	-0.585	-0.578	OSGEPL1 (O-sialoglycoprotein endopeptidase like 1)
-0.351	2.21	-0.353	-0.454	-0.132	ACAP2 (ArfGAP with coiled-coil, ankyrin repeat and PH domains 2)
-0.078	3.05	0.219	0.342	0.0668	CYP21A2 (cytochrome P450 family 21 subfamily A member 2)
0.0828	2.43	0.316	0.0082	-0.0394	SPP1 (secreted phosphoprotein 1)
-0.592	2.55	-0.572	-0.669	-0.415	NREP (neuronal regeneration related protein)
-0.458	3.08	-0.473	-0.554	-0.502	CFAP263 (cilia and flagella associated protein 263)
-0.0587	2.8	-0.114	-0.105	-0.01	MEMO1 (mediator of cell motility 1)
-0.139	2.55	0.0338	-0.0948	-0.577	CWC25 (CWC25 spliceosome associated protein)
-0.704	1.24	-0.765	-0.116	-0.583	BRINP2 (BMP/retinoic acid inducible neural specific 2)
0.871	0.777	0.824	0.779	0.849	ZNF541 (zinc finger protein 541)
-0.548	2.07	-0.515	-0.444	-0.493	PTMS (parathymosin)
-0.0583	2.09	-0.244	0.155	-0.346	PPFIA2 (PPFI scaffold protein A2)
-0.521	3.19	-0.459	-0.566	-0.463	EVC2 (EvC ciliary complex subunit 2)
0.0352	1.68	-0.193	0.0704	-0.122	G6PC2 (glucose-6-phosphatase catalytic subunit 2)
0.571	2.81	0.538	0.501	0.415	PLEKHN1 (pleckstrin homology domain containing N1)
0.582	1.56	0.506	0.563	0.65	C2CD3 (C2 domain containing 3 centriole elongation regulator)
-0.316	2.21	-0.287	-0.615	-0.207	SLC39A9
0.1	1.53	0.0986	0.727	0.0583	POU2F2 (POU class 2 homeobox 2)
-0.613	3.83	-0.662	-0.606	-0.688	DAB2 (DAB adaptor protein 2)
-0.291	2.41	-0.469	-0.632	0.108	MMP14 (matrix metallopeptidase 14)
-0.284	2.46	-0.415	-0.211	-0.227	OAS3 (2'-5'-oligoadenylate synthetase 3)
0.373	1.3	0.0693	0.307	0.323	CARD19 (caspase recruitment domain family member 19)
